Earlier results as cited in patent US5756107A, “Formulations and methods for reducing skin irritation” (Cosmederm Technologies, priority 1994, dated 1998).

System: skin
Conditions: skin local anesthetics; cited from earlier work

## CCN(CC)CC(=O)Nc1c(C)cccc1C [Lidocaine]
  anesthetic side-effects (comparator): undesirable anesthetic side-effects
